{"source": "PubChem BioAssay AID540276", "about": "(National Center for Advancing Translational Sciences (NCATS), 2011)", "note": "Among all 300,000 compounds or so, about 5,400 (1.8%) were called active. Inconclusive means that the source gave no clear call. Such entries were picked first, then a sample of the others. The call rests on the fitted dose curve; tested in HEK293 cells. Where the call is inconclusive, the potency comes from a doubtful curve fit. On the % scale 0 is the no-effect control and ±100 the full control effect; potency means the concentration at half of the fitted maximal effect.", "data": [{"experiment": "qHTS for inhibitors of binding or entry into cells for Marburg Virus", "settings": "Marburg virus pseudotyped entry inhibition, cell reporter; activity change, negative = inhibition: at 37.8 µM (top of the series) unless noted", "values": [{"smiles": "O=C(NP(=O)(N1CCCC1)N1CCCC1)C1=C(N2CCOCC2)/C(=C/c2cccc([N+](=O)[O-])c2)CC1", "activity change, negative = inhibition": "inactive: 3.46% [at 46.1 µM]"}, {"smiles": "Cc1ccc(C2=CSC3=NCCN23)cc1", "Potency": "inconclusive: 3.16 µM [activator, single point]"}, {"smiles": "COc1ccc(NC(=S)NC2CCCCC2)cn1", "activity change, negative = inhibition": "inactive: 1.5% [at 46.1 µM]"}, {"smiles": "COc1cc(NC(=O)c2cccs2)c(OC)cc1NC(=O)CCC(=O)Nc1ccc2ncccc2c1", "Potency": "inconclusive: 22.4 µM [inhibitor, partial curve, poor fit]"}, {"smiles": "CC(C)(C)n1nnnc1CN1CCN2CCCC2C1", "note": "(stereo not given)", "Potency": "inconclusive: 2.51 µM [activator, single point]"}, {"smiles": "CC(/C=N/NC(=O)c1cc(-c2ccc3ccccc3c2)n[nH]1)=C\\c1ccco1", "Potency": "inconclusive: 11.2 µM [inhibitor, partial curve, poor fit]"}, {"smiles": "CSCCC(NS(=O)(=O)c1ccc(C)cc1)C(=O)N1CCN(C(c2ccccc2)c2ccccc2)CC1", "note": "(stereo not given)", "Potency": "inconclusive: 35.5 µM [inhibitor, single point]"}, {"smiles": "O=C(C1CCCN(S(=O)(=O)c2ccc(Br)s2)C1)N1CCN(c2ccc(F)cc2)CC1", "note": "(stereo not given)", "Potency": "inconclusive: 10 µM [inhibitor, partial curve, poor fit]"}, {"smiles": "CCc1nc2ccccc2n(CC)c1=O", "Potency": "inconclusive: 17.8 µM [activator, single point]"}, {"smiles": "Cc1cc(C)cc(N2C(=O)CC(Sc3nnnn3-c3ccccc3)C2=O)c1", "note": "(stereo not given)", "Potency": "inconclusive: 6.51 µM [inhibitor, single point]"}, {"smiles": "Cc1ccc(/C=N/Nc2nc(N3CCOCC3)nc(N3CCOCC3)n2)o1", "Potency": "inconclusive: 28.2 µM [inhibitor, partial curve]"}, {"smiles": "Cc1ccc(S(=O)(=O)N(c2cccc(C(F)(F)F)c2)C2C=CS(=O)(=O)C2)cc1", "note": "(stereo not given)", "activity change, negative = inhibition": "inactive: -22.9%"}, {"smiles": "Cc1cc(C)c(-n2c(SCCS(=O)(=O)c3ccc(F)cc3)n[nH]c2=O)c(C)c1", "Potency": "inconclusive: 1.58 µM [inhibitor, full curve, poor fit]"}, {"smiles": "CCCCOc1ccc(C(=O)Nc2ccc(OCC(=O)N3CCOCC3)cc2)cc1", "Potency": "inconclusive: 20 µM [inhibitor, single point]"}, {"smiles": "CCOCN(C(=O)Cn1c(C)nc2ccccc21)c1c(C)cccc1CC", "activity change, negative = inhibition": "inactive: -8.35% [at 46.1 µM]"}, {"smiles": "Cc1cccc2cc(CN(CCCN(C)C)C(=S)NCCc3ccccc3)c(=O)[nH]c12", "Potency": "inconclusive: 35.5 µM [inhibitor, single point]"}, {"smiles": "CCCCN(CCCC)CC(O)COc1ccccc1C(=O)Nc1ccccc1", "note": "(stereo not given)", "Potency": "inconclusive: 31.6 µM [inhibitor, single point]"}, {"smiles": "N/C(=N/OC(=O)c1cccc([N+](=O)[O-])c1)c1cccc([N+](=O)[O-])c1", "Potency": "inconclusive: 11.2 µM [activator, partial curve, poor fit]"}, {"smiles": "O=C(CCNS(=O)(=O)c1ccccc1)NCCCSc1ccccc1", "activity change, negative = inhibition": "inactive: 15%"}, {"smiles": "COCCn1c(SCC(=O)Nc2ccc(Cl)c(S(=O)(=O)N(C)C)c2)nc2ccccc21", "Potency": "inconclusive: 0.651 µM [inhibitor, full curve, poor fit]"}, {"smiles": "Cc1ccc2nsnc2c1NC(=O)Cc1ccc(Cl)cc1", "activity change, negative = inhibition": "inactive: 14.7% [at 46.1 µM]"}, {"smiles": "CCOC(=O)CN1C(=O)NC(c2ccccc2)C(C(C)=O)=C1C", "note": "(stereo not given)", "Potency": "inconclusive: 0.75 µM [inhibitor, partial curve, poor fit]"}, {"smiles": "COc1ccc(OCc2nnc(SCC(=O)O)n2N)cc1", "Potency": "inconclusive: 14.1 µM [activator, single point]"}, {"smiles": "CC(C)Sc1nc2ccc(N3C(=O)C4CCCCC4C3=O)cc2s1", "note": "(stereo not given)", "Potency": "inconclusive: 2 µM [activator, partial curve, poor fit]"}, {"smiles": "CCOC(=O)/C(C#N)=C/c1ccc(OCC(=O)Nc2ccc(OC)cc2)c(OC)c1", "activity change, negative = inhibition": "inactive: -19.5%"}, {"smiles": "CCC1(C)N=C(c2ccc3c(c2)OCO3)CC(c2ccccc2O)N1", "note": "(stereo not given)", "Potency": "inconclusive: 23.1 µM [activator, partial curve, poor fit]"}, {"smiles": "Cc1cccc(C)c1N(CC(=O)NC1CCCCC1)C(=O)c1csnn1", "activity change, negative = inhibition": "inactive: -4.59% [at 46.1 µM]"}, {"smiles": "Cc1cccc(-n2c(SCC(=O)N(C)C3CCS(=O)(=O)C3)nc3ccccc3c2=O)c1C", "note": "(stereo not given)", "activity change, negative = inhibition": "inactive: -12.7%"}, {"smiles": "COc1ccc(-c2cc(C(=O)N(C)Cc3ccccc3)c3ccccc3n2)cc1", "Potency": "inconclusive: 31.6 µM [inhibitor, partial curve, poor fit]"}, {"smiles": "CN1CCC=C(C(=O)N2c3ccccc3Sc3ccc(Cl)cc32)C1", "Potency": "inconclusive: 35.5 µM [inhibitor, single point]"}, {"smiles": "COc1cc2c(cc1NC(=O)CN1CCN(S(=O)(=O)c3ccc(C)cc3)CC1)oc1ccccc12", "Potency": "inconclusive: 6.31 µM [inhibitor, single point]"}, {"smiles": "COC(=O)c1nnc(SC)nc1C(=O)OC", "Potency": "inactive"}, {"smiles": "CC(=O)c1ccc(N(CC(=O)NCc2ccc3c(c2)OCO3)C(=O)c2csnn2)cc1", "activity change, negative = inhibition": "inactive: 2.04% [at 46.1 µM]"}, {"smiles": "Cc1cccc(-c2noc(-c3ccc(NC4CCCC4)c([N+](=O)[O-])c3)n2)c1", "activity change, negative = inhibition": "inactive: 12.8% [at 46.1 µM]"}, {"smiles": "O=C(Nc1nccs1)c1ccc(COc2ccccc2Br)o1", "Potency": "inconclusive: 20.6 µM [inhibitor, single point]"}, {"smiles": "Cc1cc(Cl)ccc1C(=O)C1CCCN(C2CCSCC2)C1", "note": "(stereo not given)", "Potency": "active: 10 µM"}, {"smiles": "Cc1cc(N2CCOCC2)nc(-c2ccc(Br)cc2)n1", "Potency": "inconclusive: 35.5 µM [inhibitor, single point]"}, {"smiles": "O=C(CSc1n[nH]c(-c2ccccc2)n1)c1ccc(O)c(O)c1", "activity change, negative = inhibition": "inactive: 3.83%"}, {"smiles": "O=c1cccc2n1Cc1cc3ccccc3nc1-2", "activity change, negative = inhibition": "inactive: 1.43%"}, {"smiles": "c1ccc(-c2cc(-c3nc(-c4cccnc4)no3)c3ccccc3n2)cc1", "activity change, negative = inhibition": "inactive: -2.95%"}, {"smiles": "O=C(NC1CC(=O)c2sccc21)c1ccc(Cl)cc1Cl", "note": "(stereo not given)", "activity change, negative = inhibition": "inactive: 13.1% [at 46.1 µM]"}, {"smiles": "CC1CN(c2ncnc3c2c(-c2ccccc2)cn3-c2ccc(F)cc2)CC(C)O1", "note": "(stereo not given)", "Potency": "inconclusive: 35.5 µM [inhibitor, single point]"}, {"smiles": "COc1ccc(-c2nc3cc([N+](=O)[O-])ccc3o2)cc1", "activity change, negative = inhibition": "inactive: 16% [at 46.1 µM]"}, {"smiles": "CCN(CC)C(=O)[C@H]1CC(CC(=O)NCc2ccco2)C(=O)N2CCc3c([nH]c4ccc(OC)cc34)[C@]12C", "note": "(stereo not given in full)", "activity change, negative = inhibition": "inactive: -0.481%"}, {"smiles": "Nc1nc(Nc2cccc(Cl)c2)nc(NCCO)c1[N+](=O)[O-]", "Potency": "inconclusive: 0.316 µM [inhibitor, full curve, poor fit]"}, {"smiles": "Cc1ccc(C)c(Cn2c(=O)n(CCCC(=O)NCc3ccco3)c(=O)c3sccc32)c1", "Potency": "inconclusive: 14.6 µM [inhibitor, partial curve, poor fit]"}, {"smiles": "Cc1ccc(Cl)cc1NC(=O)CN1CCOCC1", "activity change, negative = inhibition": "inactive: 9.63%"}, {"smiles": "Cc1ccc(S(=O)(=O)N2CCC(=O)N(C(COCc3ccc(C(F)(F)F)cc3)C(C)C)CC2)cc1", "note": "(stereo not given)", "Potency": "inconclusive: 14.6 µM [inhibitor, single point]"}, {"smiles": "O=S(=O)(Nc1cc(S(=O)(=O)N2CCOCC2)ccc1N1CCCC1)c1cccs1", "Potency": "inconclusive: 6.31 µM [activator, single point]"}, {"smiles": "Cc1cccc(C)c1OCc1cc(C(=O)N2CCN(C3CCCC3)CC2)no1", "activity change, negative = inhibition": "inactive: -9.17%"}, {"smiles": "O=C(NCc1ccco1)/C(=C\\c1cccnc1)NC(=O)c1ccccc1F", "activity change, negative = inhibition": "inactive: 4.13%"}, {"smiles": "CC(C)(C)c1ccc(Cn2nnc3c(=O)[nH]c(C4CCCN(C(=O)c5ccco5)C4)nc32)cc1", "note": "(stereo not given)", "Potency": "active: 10 µM"}, {"smiles": "Cc1ccc(Nc2ncnc3sc(C)c(C)c23)cc1", "Potency": "inactive"}, {"smiles": "CC(C)CCn1nc(C(=O)Nc2nc3c(s2)CCCC3)c2ccccc2c1=O", "Potency": "inconclusive: 2.51 µM [inhibitor, partial curve, poor fit]"}, {"smiles": "O=C(Nc1ccc2nn(-c3ccc(F)cc3)nc2c1)c1cccc2c(Cl)cccc12", "activity change, negative = inhibition": "inactive: -0.0904% [at 46.1 µM]"}, {"smiles": "CCN=C(Nc1cccc(F)c1)SC1CC(=O)N(c2ccc(OC)cc2)C1=O", "note": "(stereo not given)", "Potency": "inconclusive: 14.6 µM [inhibitor, single point]"}, {"smiles": "CC1(C)CC(=O)C2=C(C1)N(Cc1ccco1)C(=O)C2(NC(=O)C1CCCCC1)C(F)(F)F", "note": "(stereo not given)", "Potency": "inactive"}, {"smiles": "COCCNc1cc(N2CCN(C3CCCCC3)CC2)c2noc3c2c1C(=O)c1ccccc1-3", "activity change, negative = inhibition": "inactive: 29.6% [at 46.1 µM]"}, {"smiles": "Cc1cccn2c(=O)c(/C=C(\\C#N)C(=O)NC3CCS(=O)(=O)C3)c(Oc3ccc(F)cc3)nc12", "note": "(stereo not given)", "Potency": "inconclusive: 12.6 µM [inhibitor, partial curve]"}, {"smiles": "O=C(CN1CCCCC1)Nc1cccc(Oc2ccccc2)c1", "Potency": "inconclusive: 6.51 µM [inhibitor, partial curve, poor fit]"}, {"smiles": "O=C(CC(c1ccccc1)c1ccccc1)NCC1CCCO1", "note": "(stereo not given)", "activity change, negative = inhibition": "inactive: 17.6%"}, {"smiles": "CC1(C)CC(=O)c2c(O)cc(OCc3ccc([N+](=O)[O-])cc3)cc2O1", "activity change, negative = inhibition": "inactive: 29.3%"}, {"smiles": "Cc1ccc(NC(=O)c2cccc(OCc3c(C)noc3C)c2)cc1S(=O)(=O)Nc1ccccc1Cl", "activity change, negative = inhibition": "inactive: -17.9%"}, {"smiles": "S=C(NCc1ccncc1)Nc1cccc(Cl)c1", "Potency": "inconclusive: 2.59 µM [inhibitor, single point]"}, {"smiles": "CCOc1ccc(NC(=O)CSc2nccn(-c3ccc4c(c3)OCCO4)c2=O)cc1", "activity change, negative = inhibition": "inactive: 0.367%"}, {"smiles": "COc1cccc(C(=O)N2CCC(c3nc4ccccc4s3)CC2)c1", "activity change, negative = inhibition": "inactive: -28.1% [at 46.1 µM]"}, {"smiles": "CCc1ccc(C(C(=O)NCc2ccc(OC)cc2)N(CCOC)C(=O)Cc2cccs2)cc1", "note": "(stereo not given)", "Potency": "inconclusive: 13 µM [inhibitor, partial curve, poor fit]"}, {"smiles": "Cc1ccc(-c2nnc(Nc3ccc(Br)cc3)c3ccccc23)cc1S(=O)(=O)NCc1nc2ccccc2[nH]1", "Potency": "inconclusive: 2.51 µM [inhibitor, single point]"}, {"smiles": "CC1(C)O[C@@H]2O[C@H]([C@H](O)CO/N=C3/[C@H]4O[C@@H]4[C@@H](O)[C@H]4[C@H]3CCn3c(=O)n(-c5ccccc5)c(=O)n34)[C@@H](O)[C@@H]2O1", "Potency": "inconclusive: 2.99 µM [activator, single point]"}, {"smiles": "O=c1n(-c2ccc(Br)cc2)cnn1-c1ncccc1[N+](=O)[O-]", "Potency": "inconclusive: 1.26 µM [activator, full curve, poor fit]"}]}]}
